{"source": "PubChem BioAssay AID1224826 (NIAID, 2016)", "test": "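Regulators of Tlr4 signalling leading to Tnf-alpha expression in macrophages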 (primary screen)", "cells": "RAW264.7 G9 macrophages from mouse bearing reporters for p65 (GFP) and the Tnf promoter (mCherry)", "knock-down reagent": "siRNA pool against mouse genes, 100 nM", "duration": "16 h of LPS stimulation, after 2 days of siRNA transfection", "conditions": "bacterial lipopolysaccharide (Salmonella minnesota R595), 10 ng/ml", "measurement": "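Nuclear mCherry signal of the Tnf promoter reporter measured by imaging after background removal, scaled to each plate median and turned into robust z-scores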", "direction": "Tnf reporter robust z-score: higher = stronger Tnf promoter reporter signal after LPS", "active means": "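a well counts as active at a score of -1.3 or below (Tlr4 knock-down control median) or above 3 (raised signal); controls and wells holding fewer than 50 cells are excluded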", "calls": "active = Tnf reporter clearly lowered or raised; inactive = no clear change in Tnf reporter", "note": "Here is an unselected part of about 17,000 deposited reagents. About 1,110 of all reagents (6.6%) were called active. 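Active means lowered or raised reporter signal; replicate intensities are raw and not normalised per plate.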 Entries without a mark were called inactive. Further read-outs or replicates are left out here. No sequences are given here."}
{"Target gene": "Steap4 (GeneID 117167)", "fewer than 50 cells in well": "fewer than 50 cells per well; well left out of calls"}
{"Target gene": "Tgif2 (GeneID 228839)", "Tnf reporter robust z-score": 0.15, "fewer than 50 cells in well": "enough cells in well"}
{"Target gene": "Mex3b (GeneID 108797)", "Tnf reporter robust z-score": -1.06, "fewer than 50 cells in well": "enough cells in well"}
{"Target gene": "Spata9 (GeneID 75571)", "Tnf reporter robust z-score": 2.19, "fewer than 50 cells in well": "enough cells in well"}
{"Target gene": "Cct2 (GeneID 12461)", "Tnf reporter robust z-score": 1.84, "fewer than 50 cells in well": "enough cells in well"}
{"Target gene": "Noazfp (GeneID 30932)", "Tnf reporter robust z-score": 0.54, "fewer than 50 cells in well": "enough cells in well"}
{"Target gene": "Fkbp1b (GeneID 14226)", "Tnf reporter robust z-score": -0.08, "fewer than 50 cells in well": "enough cells in well"}
{"Target gene": "A930018P22Rik (GeneID 68243)", "Tnf reporter robust z-score": 1.33, "fewer than 50 cells in well": "enough cells in well"}
{"Target gene": "Prpf38b (GeneID 66921)", "Tnf reporter robust z-score": "-1.3 (active)", "fewer than 50 cells in well": "enough cells in well"}
{"Target gene": "Cpd (GeneID 12874)", "Tnf reporter robust z-score": 0.2, "fewer than 50 cells in well": "enough cells in well"}
{"Target gene": "Tmem65 (GeneID 74868)", "fewer than 50 cells in well": "fewer than 50 cells per well; well left out of calls"}
{"Target gene": "Ston2 (GeneID 108800)", "Tnf reporter robust z-score": 0.21, "fewer than 50 cells in well": "enough cells in well"}
{"Target gene": "Clec5a (GeneID 23845)", "Tnf reporter robust z-score": -0.62, "fewer than 50 cells in well": "enough cells in well"}
{"Target gene": "Myo1g (GeneID 246177)", "Tnf reporter robust z-score": -0.68, "fewer than 50 cells in well": "enough cells in well"}

Just “fewer than 50 cells in well” (2 entries from above):
Cpd (GeneID 12874): enough cells in well
Tmem65 (GeneID 74868): fewer than 50 cells per well; well left out of calls

Continued.
{"Target gene": "Tymp (GeneID 72962)", "Tnf reporter robust z-score": 1.2, "fewer than 50 cells in well": "enough cells in well"}
{"Target gene": "Rgs13 (GeneID 246709)", "Tnf reporter robust z-score": 0.51, "fewer than 50 cells in well": "enough cells in well"}
{"Target gene": "Dbp (GeneID 13170)", "Tnf reporter robust z-score": -0.77, "fewer than 50 cells in well": "enough cells in well"}
{"Target gene": "Ccr9 (GeneID 12769)", "Tnf reporter robust z-score": 0.09, "fewer than 50 cells in well": "enough cells in well"}
{"Target gene": "Bambi (GeneID 68010)", "Tnf reporter robust z-score": "-2.22 (active)", "fewer than 50 cells in well": "enough cells in well"}
{"Target gene": "Krtcap3 (GeneID 69815)", "Tnf reporter robust z-score": 0.02, "fewer than 50 cells in well": "enough cells in well"}
{"Target gene": "Arid3a (GeneID 13496)", "Tnf reporter robust z-score": 0.79, "fewer than 50 cells in well": "enough cells in well"}
